Some of the results follow. Most entries show no effect beyond the scatter of the controls.
Compound: CN[C@@H]1C[C@H]2O[C@@](C)([C@@H]1OC)n1c3ccccc3c3c4c(c5c6ccccc6n2c5c31)C(=O)NC4 [staurosporine]
Experiment: log2 fold change of tryptic peptide abundance, ligand vs vehicle (limited proteolysis) (log2 ratio); higher = more trypsin-susceptible (destabilized)
Conditions: ligand concentration: 20 uM; sample: K562 cleared lysate; digestion: 4 min, 22 C (HT-PELSA RT4min, Orbitrap Astral)

By UniProt entry, the sequences of proteins in these tests, tags left out. Where a name states a change or a piece, a line headed by the entry shows the natural chain unless it says otherwise.
UniProt Q9BQ24: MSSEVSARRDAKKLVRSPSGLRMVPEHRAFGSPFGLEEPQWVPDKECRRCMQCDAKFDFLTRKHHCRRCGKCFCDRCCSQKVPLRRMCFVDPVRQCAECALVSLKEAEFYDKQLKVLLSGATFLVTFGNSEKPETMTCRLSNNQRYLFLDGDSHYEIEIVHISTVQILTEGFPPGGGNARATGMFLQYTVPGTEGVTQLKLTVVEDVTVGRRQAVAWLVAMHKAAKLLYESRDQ
UniProt Q9BSM1: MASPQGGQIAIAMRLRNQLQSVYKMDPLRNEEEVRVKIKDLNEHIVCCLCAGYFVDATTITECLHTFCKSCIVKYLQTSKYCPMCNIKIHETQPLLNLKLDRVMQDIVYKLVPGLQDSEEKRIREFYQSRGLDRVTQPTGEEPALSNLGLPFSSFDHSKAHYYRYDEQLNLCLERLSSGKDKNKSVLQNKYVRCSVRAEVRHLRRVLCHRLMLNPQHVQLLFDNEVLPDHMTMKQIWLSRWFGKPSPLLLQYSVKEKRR
UniProt Q99607: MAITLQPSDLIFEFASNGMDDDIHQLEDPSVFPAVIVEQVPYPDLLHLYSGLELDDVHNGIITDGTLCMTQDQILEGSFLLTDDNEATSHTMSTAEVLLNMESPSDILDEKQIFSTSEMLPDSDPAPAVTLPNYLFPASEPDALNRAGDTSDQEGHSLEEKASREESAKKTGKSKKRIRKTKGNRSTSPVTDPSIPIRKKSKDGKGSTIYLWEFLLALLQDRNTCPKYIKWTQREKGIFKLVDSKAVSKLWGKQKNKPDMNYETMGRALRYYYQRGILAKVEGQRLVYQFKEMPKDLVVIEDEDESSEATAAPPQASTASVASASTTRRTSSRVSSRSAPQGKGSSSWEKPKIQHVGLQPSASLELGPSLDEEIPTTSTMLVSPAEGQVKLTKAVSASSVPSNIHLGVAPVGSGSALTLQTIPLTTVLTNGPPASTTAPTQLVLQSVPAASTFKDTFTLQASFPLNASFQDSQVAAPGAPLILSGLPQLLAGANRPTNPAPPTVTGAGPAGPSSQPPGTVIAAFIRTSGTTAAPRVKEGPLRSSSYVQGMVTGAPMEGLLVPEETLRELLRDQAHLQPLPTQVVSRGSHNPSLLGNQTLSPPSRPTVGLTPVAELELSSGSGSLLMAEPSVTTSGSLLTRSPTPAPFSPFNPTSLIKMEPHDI
UniProt Q9BW62: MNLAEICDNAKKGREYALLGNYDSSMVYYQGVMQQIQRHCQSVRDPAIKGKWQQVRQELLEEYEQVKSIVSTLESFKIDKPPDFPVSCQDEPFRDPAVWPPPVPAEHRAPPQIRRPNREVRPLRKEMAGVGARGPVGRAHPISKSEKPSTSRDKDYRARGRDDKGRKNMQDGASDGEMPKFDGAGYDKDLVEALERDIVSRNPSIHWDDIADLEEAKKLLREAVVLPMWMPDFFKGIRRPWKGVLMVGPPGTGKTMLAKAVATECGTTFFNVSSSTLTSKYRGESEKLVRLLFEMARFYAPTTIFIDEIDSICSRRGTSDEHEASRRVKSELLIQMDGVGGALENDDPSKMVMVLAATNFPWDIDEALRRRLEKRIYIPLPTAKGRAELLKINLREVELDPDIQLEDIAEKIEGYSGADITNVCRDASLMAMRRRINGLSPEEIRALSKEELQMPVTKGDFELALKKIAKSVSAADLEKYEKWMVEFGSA
UniProt Q9BW60: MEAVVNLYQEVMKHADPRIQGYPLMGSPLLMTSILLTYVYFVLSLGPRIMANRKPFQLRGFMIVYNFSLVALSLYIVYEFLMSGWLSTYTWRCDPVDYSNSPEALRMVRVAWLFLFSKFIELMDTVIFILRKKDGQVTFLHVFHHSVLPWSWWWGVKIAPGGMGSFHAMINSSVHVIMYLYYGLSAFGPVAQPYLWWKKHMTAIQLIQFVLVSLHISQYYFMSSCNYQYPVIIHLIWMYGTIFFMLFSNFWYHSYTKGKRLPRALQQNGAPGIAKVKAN
UniProt Q9BRT8: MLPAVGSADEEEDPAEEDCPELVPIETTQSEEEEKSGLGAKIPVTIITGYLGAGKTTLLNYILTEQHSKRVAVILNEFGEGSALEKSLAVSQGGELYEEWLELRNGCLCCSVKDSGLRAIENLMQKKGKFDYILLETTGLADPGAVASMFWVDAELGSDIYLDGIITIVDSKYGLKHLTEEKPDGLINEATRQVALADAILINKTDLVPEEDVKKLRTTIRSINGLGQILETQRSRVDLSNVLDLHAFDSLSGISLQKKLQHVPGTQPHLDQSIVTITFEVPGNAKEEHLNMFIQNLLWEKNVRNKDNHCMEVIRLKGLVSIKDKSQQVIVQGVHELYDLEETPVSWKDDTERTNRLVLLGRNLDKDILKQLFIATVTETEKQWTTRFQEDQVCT
UniProt Q9BR76, whole entry: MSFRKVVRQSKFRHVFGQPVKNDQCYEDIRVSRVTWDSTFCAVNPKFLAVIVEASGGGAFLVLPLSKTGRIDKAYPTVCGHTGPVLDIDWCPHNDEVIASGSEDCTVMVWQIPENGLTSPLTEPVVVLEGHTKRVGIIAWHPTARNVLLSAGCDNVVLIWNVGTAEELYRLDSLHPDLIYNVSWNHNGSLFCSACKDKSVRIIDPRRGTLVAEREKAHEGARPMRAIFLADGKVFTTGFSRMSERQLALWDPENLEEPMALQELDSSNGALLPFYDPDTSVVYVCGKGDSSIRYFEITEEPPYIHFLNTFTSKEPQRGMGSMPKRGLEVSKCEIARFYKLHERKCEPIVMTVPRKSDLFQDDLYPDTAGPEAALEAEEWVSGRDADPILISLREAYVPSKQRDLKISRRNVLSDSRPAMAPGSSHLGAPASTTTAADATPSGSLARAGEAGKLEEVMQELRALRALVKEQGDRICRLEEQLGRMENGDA
UniProt Q9BRA2: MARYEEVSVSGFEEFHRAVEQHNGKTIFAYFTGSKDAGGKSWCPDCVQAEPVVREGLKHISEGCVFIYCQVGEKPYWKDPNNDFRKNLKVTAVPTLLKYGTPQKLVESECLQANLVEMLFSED
UniProt Q9BVC5: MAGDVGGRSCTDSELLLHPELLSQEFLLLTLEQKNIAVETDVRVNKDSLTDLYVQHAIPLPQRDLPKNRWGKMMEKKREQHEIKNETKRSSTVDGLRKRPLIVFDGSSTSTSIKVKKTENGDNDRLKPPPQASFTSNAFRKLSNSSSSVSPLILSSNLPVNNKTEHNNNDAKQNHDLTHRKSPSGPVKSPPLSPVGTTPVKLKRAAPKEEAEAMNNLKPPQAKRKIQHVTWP
UniProt Q99633: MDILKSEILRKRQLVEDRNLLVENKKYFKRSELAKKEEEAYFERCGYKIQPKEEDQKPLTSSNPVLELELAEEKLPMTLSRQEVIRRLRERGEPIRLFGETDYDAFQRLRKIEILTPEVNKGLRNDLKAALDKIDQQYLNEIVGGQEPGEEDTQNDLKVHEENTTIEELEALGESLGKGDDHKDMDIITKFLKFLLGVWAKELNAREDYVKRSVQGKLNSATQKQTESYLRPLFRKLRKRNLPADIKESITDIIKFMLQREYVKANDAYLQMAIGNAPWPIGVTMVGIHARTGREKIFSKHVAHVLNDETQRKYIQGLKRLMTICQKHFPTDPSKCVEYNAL
UniProt Q99653: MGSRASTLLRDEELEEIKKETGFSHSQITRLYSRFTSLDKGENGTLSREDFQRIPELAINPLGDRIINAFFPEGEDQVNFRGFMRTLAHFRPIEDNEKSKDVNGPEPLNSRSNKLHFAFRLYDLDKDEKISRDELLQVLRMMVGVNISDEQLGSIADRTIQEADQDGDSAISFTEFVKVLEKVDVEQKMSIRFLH
UniProt Q9BW19: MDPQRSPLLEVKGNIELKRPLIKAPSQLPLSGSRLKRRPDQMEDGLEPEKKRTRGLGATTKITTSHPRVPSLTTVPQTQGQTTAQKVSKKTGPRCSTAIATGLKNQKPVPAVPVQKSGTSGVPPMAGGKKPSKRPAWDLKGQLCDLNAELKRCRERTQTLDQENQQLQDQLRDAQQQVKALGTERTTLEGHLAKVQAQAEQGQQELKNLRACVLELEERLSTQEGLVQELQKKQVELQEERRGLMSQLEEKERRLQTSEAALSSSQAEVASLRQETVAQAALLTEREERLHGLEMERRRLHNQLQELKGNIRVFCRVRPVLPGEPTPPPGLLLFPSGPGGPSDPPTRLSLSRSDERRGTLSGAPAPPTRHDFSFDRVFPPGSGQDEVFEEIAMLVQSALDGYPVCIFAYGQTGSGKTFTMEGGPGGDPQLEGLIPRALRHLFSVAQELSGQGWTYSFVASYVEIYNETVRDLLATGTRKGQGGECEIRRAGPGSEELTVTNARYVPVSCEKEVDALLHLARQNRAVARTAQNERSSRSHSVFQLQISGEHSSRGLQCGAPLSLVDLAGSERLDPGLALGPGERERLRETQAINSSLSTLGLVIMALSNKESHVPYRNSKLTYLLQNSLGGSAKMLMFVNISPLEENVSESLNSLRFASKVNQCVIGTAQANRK
UniProt Q9BT09: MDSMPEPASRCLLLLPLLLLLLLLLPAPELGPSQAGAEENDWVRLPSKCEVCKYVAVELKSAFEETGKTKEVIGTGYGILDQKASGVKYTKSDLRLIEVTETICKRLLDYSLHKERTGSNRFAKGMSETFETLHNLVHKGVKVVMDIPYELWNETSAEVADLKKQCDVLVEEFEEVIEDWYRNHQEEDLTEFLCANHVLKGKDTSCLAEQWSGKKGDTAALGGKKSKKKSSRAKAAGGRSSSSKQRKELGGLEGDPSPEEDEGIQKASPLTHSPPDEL
UniProt Q9BT25: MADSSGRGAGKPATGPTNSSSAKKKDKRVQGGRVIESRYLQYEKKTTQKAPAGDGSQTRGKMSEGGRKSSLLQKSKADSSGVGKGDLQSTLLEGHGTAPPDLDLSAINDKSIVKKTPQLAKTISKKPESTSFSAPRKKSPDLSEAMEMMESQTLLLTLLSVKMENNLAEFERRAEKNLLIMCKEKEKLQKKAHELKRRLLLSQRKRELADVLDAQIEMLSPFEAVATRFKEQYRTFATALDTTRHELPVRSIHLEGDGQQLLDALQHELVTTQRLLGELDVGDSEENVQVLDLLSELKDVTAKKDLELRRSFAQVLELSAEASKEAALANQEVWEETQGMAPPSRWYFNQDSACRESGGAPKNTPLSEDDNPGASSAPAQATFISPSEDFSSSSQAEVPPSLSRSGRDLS
UniProt Q9BQI3, whole entry: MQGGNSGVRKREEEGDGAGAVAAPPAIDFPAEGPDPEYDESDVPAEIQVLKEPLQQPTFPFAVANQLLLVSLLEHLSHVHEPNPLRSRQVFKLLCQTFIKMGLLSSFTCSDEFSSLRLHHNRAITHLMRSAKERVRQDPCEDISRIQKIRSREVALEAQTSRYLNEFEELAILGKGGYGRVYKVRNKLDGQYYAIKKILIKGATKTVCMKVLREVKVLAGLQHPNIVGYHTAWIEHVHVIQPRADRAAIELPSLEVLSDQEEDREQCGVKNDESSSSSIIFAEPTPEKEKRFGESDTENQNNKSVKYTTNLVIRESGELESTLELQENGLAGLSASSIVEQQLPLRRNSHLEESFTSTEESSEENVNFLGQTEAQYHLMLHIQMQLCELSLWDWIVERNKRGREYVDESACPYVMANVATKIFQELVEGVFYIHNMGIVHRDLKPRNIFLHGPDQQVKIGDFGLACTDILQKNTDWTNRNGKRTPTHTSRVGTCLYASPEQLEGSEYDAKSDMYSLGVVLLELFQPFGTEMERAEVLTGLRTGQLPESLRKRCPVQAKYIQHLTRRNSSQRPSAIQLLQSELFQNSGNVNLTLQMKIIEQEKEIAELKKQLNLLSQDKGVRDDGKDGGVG
UniProt Q9BTE3: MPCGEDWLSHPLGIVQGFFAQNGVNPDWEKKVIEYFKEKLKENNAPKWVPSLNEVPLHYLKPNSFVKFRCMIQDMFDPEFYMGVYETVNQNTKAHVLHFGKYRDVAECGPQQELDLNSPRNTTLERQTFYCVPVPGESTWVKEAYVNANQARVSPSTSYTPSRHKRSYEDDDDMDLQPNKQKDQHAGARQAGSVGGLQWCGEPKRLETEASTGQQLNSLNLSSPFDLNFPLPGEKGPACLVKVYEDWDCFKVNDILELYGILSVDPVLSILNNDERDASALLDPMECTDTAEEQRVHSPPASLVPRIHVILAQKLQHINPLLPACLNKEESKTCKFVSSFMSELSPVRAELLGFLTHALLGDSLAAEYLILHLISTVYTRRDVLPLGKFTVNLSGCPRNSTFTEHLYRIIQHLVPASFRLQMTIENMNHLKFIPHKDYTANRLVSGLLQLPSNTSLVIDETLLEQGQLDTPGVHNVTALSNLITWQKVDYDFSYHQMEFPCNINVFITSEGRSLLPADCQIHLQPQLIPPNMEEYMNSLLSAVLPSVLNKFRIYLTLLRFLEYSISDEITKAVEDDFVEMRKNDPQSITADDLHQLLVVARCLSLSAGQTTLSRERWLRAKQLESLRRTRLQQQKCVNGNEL
UniProt Q9BV57: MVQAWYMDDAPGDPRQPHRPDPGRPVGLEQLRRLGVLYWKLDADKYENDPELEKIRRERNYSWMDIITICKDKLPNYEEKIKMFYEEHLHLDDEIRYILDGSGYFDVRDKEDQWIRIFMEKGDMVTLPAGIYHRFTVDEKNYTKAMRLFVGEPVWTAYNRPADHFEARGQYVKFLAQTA

Target	log2 fold change
ZFYVE21 (peptide sequence: QCAECALVSLK, peptide start residue: 95) (UniProt Q9BQ24)	-0.479
PCGF1 (peptide sequence: LVPGLQDSEEKR, peptide start residue: 111) (UniProt Q9BSM1)	-0.0649
UniProt Q99607 (peptide sequence: DQAHLQPLPTQVVSR, peptide start residue: 572)	-0.117
KATNAL1 (peptide sequence: IYIPLPTAK, peptide start residue: 376) (UniProt Q9BW62)	0.139
ELOVL1 (peptide sequence: ALQQNGAPGIAK, peptide start residue: 264) (UniProt Q9BW60)	-0.121
CBWD1 (peptide sequence: FQEDQVCT, peptide start residue: 388) (UniProt Q9BRT8)	-0.285
CORO1B (peptide sequence: VFTTGFSR, peptide start residue: 234) (UniProt Q9BR76)	0.344
TXNDC17 (peptide sequence: TIFAYFTGSK, peptide start residue: 26) (UniProt Q9BRA2)	0.216
C2orf49 (peptide sequence: KRPLIVFDGSSTSTSIK, peptide start residue: 98) (UniProt Q9BVC5)	-0.129
UniProt Q99502 (peptide sequence: IGKESCFER, peptide start residue: 513)	0.0281
PRPF18 (peptide sequence: CVEYNAL, peptide start residue: 336) (UniProt Q99633)	-0.264
PKP2 (peptide sequence: IQEQVQQTLAR, peptide start residue: 56) (UniProt Q99959)	0.611
ATXN2 (peptide sequence: STSHTSDFNPNSGSDQR, peptide start residue: 528) (UniProt Q99700)	-0.166
UniProt Q99653 (peptide sequence: TLAHFRPIEDNEK, peptide start residue: 86)	-0.32
MSTO1 (peptide sequence: LILMDLK, peptide start residue: 67) (UniProt Q9BUK6)	0.263
KIFC1 (peptide sequence: EVDALLHLAR, peptide start residue: 512) (UniProt Q9BW19)	0.271
C16orf70 (peptide sequence: LKVIEVCDLTK, peptide start residue: 76) (UniProt Q9BSU1)	0.114
KIAA0586 (peptide sequence: QVEHKPSQSYLR, peptide start residue: 1437) (UniProt Q9BVV6)	-0.709
MED18 (peptide sequence: AGAPWHLR, peptide start residue: 79) (UniProt Q9BUE0)	0.179
CNPY3 (peptide sequence: SAFEETGKTK, peptide start residue: 61) (UniProt Q9BT09)	-0.59
ATF6B (peptide sequence: LSTEPSSEALGVGEVLHVK, peptide start residue: 107) (UniProt Q99941)	0.33
UniProt Q9BT25 (peptide sequence: WYFNQDSACRESGGAPK, peptide start residue: 346)	-0.397
UniProt Q9BQI3 (peptide sequence: IIEQEKEIAELKK, peptide start residue: 597)	-0.573
UniProt Q9BTE3 (peptide sequence: RSYEDDDDMDLQPNK, peptide start residue: 166)	0.583
DDA1 (peptide sequence: RPSVYLPTR, peptide start residue: 31) (UniProt Q9BW61)	0.202
CHCHD5 (peptide sequence: QNEAAVGNCAEHMR, peptide start residue: 71) (UniProt Q9BSY4)	-0.531
ADI1 (peptide sequence: LFVGEPVWTAYNRPADHFEAR, peptide start residue: 148) (UniProt Q9BV57)	0.474
MRPL45 (peptide sequence: WSFVESLEPSHVVQVR, peptide start residue: 183) (UniProt Q9BRJ2)	-0.408

Reformatted: results already given.

| Target | log2 fold change |
| --- | --- |
| KATNAL1 (peptide sequence: IYIPLPTAK, peptide start residue: 376) (UniProt Q9BW62) | 0.139 |
| ELOVL1 (peptide sequence: ALQQNGAPGIAK, peptide start residue: 264) (UniProt Q9BW60) | -0.121 |
| CBWD1 (peptide sequence: FQEDQVCT, peptide start residue: 388) (UniProt Q9BRT8) | -0.285 |
| CORO1B (peptide sequence: VFTTGFSR, peptide start residue: 234) (UniProt Q9BR76) | 0.344 |
| TXNDC17 (peptide sequence: TIFAYFTGSK, peptide start residue: 26) (UniProt Q9BRA2) | 0.216 |
| C2orf49 (peptide sequence: KRPLIVFDGSSTSTSIK, peptide start residue: 98) (UniProt Q9BVC5) | -0.129 |
| UniProt Q99502 (peptide sequence: IGKESCFER, peptide start residue: 513) | 0.0281 |

Reference: the supplement of paper PMC12819154, “High-throughput peptide-centric local stability assay extends protein–ligand identification to membrane proteins, tissues and bacteria” (Nature Structural & Molecular Biology, 2025)
